Experimental data as given in PubChem BioAssay AID493066 (National Center for Advancing Translational Sciences (NCATS), 2011).
This list was built around the results that the source calls inconclusive (neither active nor inactive); the mix of calls is not that of the screen. Calls come from the whole dose curve; as a rule, active = well fitted cell-killing curve with a large enough effect; inconclusive = small, poorly fitted or top-dose-only effect; inactive = flat fitted curve, though single readings scatter. Potencies beside an inconclusive call are fits to weak or partial responses and may not hold up.

Assay: HBEC Cell Viability Secondary Assay for qHTS Assay for Epigenetic Modulators
Settings: HBEC normal bronchial cells viability, ATP luminescence, 72 h
Text: NIH Molecular Libraries Screening Centers Network [MLSCN] NIH Chemical Genomics Center [NCGC] MLSCN Grant: 1 X01 MH079860-01 Assay Provider: Elisabeth D. Martinez, University of Texas SW Medical Center NCGC Assay Overview: This secondary assay characterizes selected actives identified in the qHTS of the Locus Derepression (LDR) assay (PubChem AID 1865). The LDR assay detects the derepression of a GFP reporter that is stably integrated in a region of the genome of murine c127i mammary cells that is presumably silenced. Compounds that cause derepression of the locus to express GFP are identified by enumerating GFP positive cells using a laser-scanning microplate cytometer. […] Cell viability was measured using a luminescence-based detection reagent that measures cellular ATP levels.
NCGC Assay Protocol Summary HBEC cells were seeded at 125 cells/5 uL/well in white, solid bottom, 1536 well plates (Greiner). […] Plates were incubated 72 hours at 37deg C and 5% CO2, then 3.5 uL/well CellTiter-Glo(R) (Promega) detection reagent was added, plates were incubated at ambient temperature for 10 minutes and luminescence was measured by a ViewLux (Perkin Elmer) reader. […] A quantitative high-throughput screen identifies potential epigenetic modulators of gene expression. […] A quantitative high-throughput screen identifies potential epigenetic modulators of gene expression. […]

Q: With `CN1CSC(=S)N(C)C1` as the molecule, how does the Potency read?
A: inconclusive: 22.3 µM [cytotoxic, partial curve, poor fit]
